In PubChem BioAssay AID1487 (National Center for Advancing Translational Sciences (NCATS), 2009):
This is one part of the list. Further columns of the screen follow, without active or inactive calls. Most of these compounds were active or inconclusive in the main read-out, so they are no random draw. The note in brackets gives the kind of curve behind each potency; many fits are weak.

Test: qHTS Assay for Modulators of Lamin A Splicing
Conditions: HeLa LMNA splicing GFP/RFP minigene ratio, 48 h
Procedure, shortened: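 Read-out is the ratio of GFP to DsRed2 object intensity, acquired by 488 nm laser-scanning cytometry on HeLa lamin A-EGFP minigene reporter cells. Compound incubation 48 hrs at 37 °C in Opti-MEM with 2% FBS; DMSO 0.5% final.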

[1] = measured here: GFP splicing reporter channel
[2] = measured here: RFP viability control channel

Compound	AC50 [1]	AC50 [2]
O=c1nc(Nc2ccc(OCc3ccccc3)cc2)sc2ncccc12	0.891 µM [falling, full curve, poor fit]	
Cc1ccc(-c2cc(C(=O)NCCCn3ccnc3)c3ccccc3n2)s1	4.47 µM [rising, full curve, poor fit]	
COc1ccccc1NC(=S)Nc1cccc2cnccc12		7.94 µM [rising, partial curve]
CCOc1ccccc1NC(=O)N1CCC(NC(=O)c2cccc(C)c2)CC1		11.2 µM [rising, single point]
Cc1ccc(-c2nc(C#N)c(NCC3CCCO3)o2)cc1 (stereo unspecified)		12.6 µM [falling, partial curve]
COc1cc(-c2ccccc2)nc2ccccc12		35.5 µM [rising, single point]
Cc1cc(C)cc(OCC(=O)N2N=C(c3cccnc3)CC2(O)C(F)(F)F)c1 (stereo unspecified)	20 µM [rising, single point]	31.6 µM [rising, single point]
O=c1c2cnn(-c3ccccc3)c2ncn1Cc1ccccc1F	6.31 µM [rising, partial curve, poor fit]	12.6 µM [rising, partial curve]
O=C(Nc1ccc(Br)cc1)c1ccc(F)c(S(=O)(=O)N2CCc3ccccc32)c1		7.08 µM [rising, partial curve]
COc1ccc(/C=N/N=C2/CC(C)(C)Cc3n[nH]c(=O)cc32)cc1		15.8 µM [rising, partial curve]
Cc1ccc(NC(=O)CN(C)CC(=O)Nc2ccccc2-c2ccccc2)cc1	0.316 µM [falling, full curve]	
CCCOc1nc2c(c(=O)n(C)c(=O)n2C)n1CCC	35.5 µM [rising, single point]	
COc1cc(CSc2ncn[nH]2)c(OC)cc1CSc1ncn[nH]1		12.6 µM [falling, partial curve]
Cc1ccc(S(=O)(=O)C(CNC(=O)C(=O)NCc2ccccc2C)c2cccs2)cc1 (stereo unspecified)	22.4 µM [falling, single point]	
COc1ccc(C(=O)/C=C/Nc2c(C)n(C)n(-c3ccccc3)c2=O)cc1OC		35.5 µM [rising, single point]
COc1ccc(N=c2cc(-c3ccc(O)cc3)oc3ccccc23)cc1		10 µM [rising, partial curve, poor fit]
O=C(/C=C/c1ccccc1[N+](=O)[O-])NCc1ccc(Cl)cc1	0.0112 µM [rising, full curve, poor fit]	
Cc1ccc2c(c1)Oc1ccccc1C=C2C(=O)O		0.0891 µM [falling, full curve]
O=C(Cc1ccc2c(c1)OCCO2)N1CCN(S(=O)(=O)c2ccccc2C(F)(F)F)CC1	11.2 µM [rising, single point]	17.8 µM [rising, single point]
COC(=O)c1c(NS(=O)(=O)c2ccc3ccccc3c2)sc2c1CCCC2		17.8 µM [rising, single point]

Compound	AC50 [1]	AC50 [2]
COc1ccc(C2CC(=O)c3c(C)nc(N4CCN(Cc5ccccc5)CC4)nc3C2)cc1OC (stereo unspecified)	0.631 µM [rising, partial curve, poor fit]	4.47 µM [rising, full curve]
O=c1c(-c2ccc(F)cc2)nc2cnc(N3CCNCC3)nc2n1Cc1cccs1	17.8 µM [falling, partial curve]	15.8 µM [falling, partial curve]
Cc1cc(Cl)n2c(nc3cc(F)c(F)cc32)c1C#N	0.0398 µM [falling, full curve, poor fit]	3.16 µM [falling, full curve]
COc1ccc(-c2nnn(CC(=O)NCc3ccccc3)n2)cc1OC	31.6 µM [rising, single point]	20 µM [rising, single point]
O=C(c1cc(-c2ccco2)nc2ccccc12)N1CCN(c2ccc(F)cc2)CC1		11.2 µM [rising, single point]
O=C1C=C(N2CCOCC2)C2(CCCCC2)O1	22.4 µM [falling, single point]	25.1 µM [falling, single point]
c1ccc2c(c1)CCN(c1nc(CN3CCOCC3)nc3sc4c(c13)CCCC4)C2		35.5 µM [rising, single point]
CSCC[C@H](NC(=O)COc1ccc(Cl)cc1)c1nc2ccccc2[nH]1		20 µM [rising, single point]
Cc1ccc(Cc2nc3ccccc3nc2SCC(=O)N2CCN(c3ccc(F)cc3)CC2)cc1		5.62 µM [falling, partial curve]
Cc1cccc(OCCCC(=O)Nc2ccc(Br)cc2)c1		35.5 µM [rising, single point]
Cc1ccc(Nc2cc(C)nn2-c2nc(C)cc(C)n2)cc1	14.1 µM [rising, partial curve]	10 µM [rising, partial curve]
O=C(Nc1cn(-c2ccccc2)nc1-c1ccccc1)c1ccccc1		35.5 µM [rising, single point]
C=CCOc1c(OC)cc(/C=N/Nc2cccc(C(=O)O)c2)c(Br)c1Br	5.62 µM [rising, partial curve, poor fit]	
O=C(NNC(=O)c1cccnc1SCc1cccc([N+](=O)[O-])c1)c1ccc(F)cc1		15.8 µM [rising, partial curve]
COC(=O)CCCNC(=O)c1ccc2[nH]c(C)c(C)c2c1		5.62 µM [falling, single point]
CCOc1ccccc1COC(=O)c1cccc(-n2cnnn2)c1		7.08 µM [rising, single point]
N/C(CSc1ccc(Cl)cc1)=N\S(=O)(=O)c1ccc(Cl)cc1		0.0112 µM [falling, full curve, poor fit]
CCCCCCC(=O)Nc1nc(C)c(-c2csc(Nc3cccc(OC)c3)n2)s1		20 µM [rising, single point]
NC(=O)NC(=O)CSc1nc(C2CCCCC2)n(-c2ccccc2)n1		0.316 µM [rising, full curve, poor fit]
CCc1c(C(=O)NNC(=S)NC2CCCCC2)csc1C	5.62 µM [rising, single point]	

Compound	AC50 [1]	AC50 [2]
Cn1cc(S(=O)(=O)Oc2ccccc2)c(=O)n(C)c1=O		0.447 µM [falling, full curve]
CCC1CCCCN1C(=O)COc1c(Br)cc(Br)c2cccnc12 (stereo unspecified)	15.8 µM [rising, partial curve, poor fit]	15.8 µM [rising, partial curve]
O=C(CSC(=S)N1CCCC1)c1cc(Br)cc(Br)c1O		35.5 µM [rising, single point]
COc1ccc(NC(=O)c2ccc(C(=O)c3ccccc3)o2)cc1	5.62 µM [rising, partial curve, poor fit]	15.8 µM [rising, single point]
COc1ccc2c(c1)CC/C(=C/c1ccncc1)C2=O		6.31 µM [rising, full curve]
C=CCNC(=O)c1c(N)n(-c2cccc(S(N)(=O)=O)c2)c2nc3ccccc3nc12	7.94 µM [rising, partial curve, poor fit]	10 µM [rising, partial curve]
O=C(NCc1ccccc1)c1ccc(C2SCC(=O)N2Cc2ccccc2)cc1 (stereo unspecified)		22.4 µM [rising, single point]
Cc1ccc(S(=O)(=O)Nc2ccccc2C=Nc2cccc(C)c2C)cc1		35.5 µM [rising, single point]
Cc1ccc(Cn2ccnc2SCC(=O)Nc2nc3ccccc3s2)cc1	17.8 µM [falling, partial curve, poor fit]	1.12 µM [falling, full curve, poor fit]
O=C(NNC(=O)C1CC2CCC1C2)c1sc2ccccc2c1Cl (stereo unspecified)		35.5 µM [rising, single point]
CCOc1ccccc1NC(=O)Nc1ccc(Cl)cc1		15.8 µM [rising, single point]
CCN=c1sc(C(=O)NCCc2ccccc2)cc(=O)n1CC		14.1 µM [rising, single point]
Cc1cc(C(=O)CSc2nnc3ccccn23)c(C)n1-c1ccccc1		22.4 µM [rising, single point]
COc1ccc(-c2[nH]c(-c3ccc(F)cc3)nc2SCC(=O)NC2CCCC2)cc1		11.2 µM [rising, partial curve]
CCN1CN=C(NS(=O)(=O)c2ccc(C)cc2)NC1	0.00501 µM [falling, full curve, poor fit]	0.00501 µM [falling, full curve, poor fit]
CCn1cc(C(=O)O)c(=O)c2cc(F)c(N3CCN(C(=O)Nc4ccccc4)CC3)cc21	15.8 µM [falling, partial curve]	14.1 µM [rising, partial curve]
COc1cccc(OCCSc2nc(N)cc(N)n2)c1		14.1 µM [rising, single point]
CCOC(=O)N1CCN(C(=O)COc2cccc3c2CCN(Cc2ccc(F)cc2)C3=O)CC1		11.2 µM [rising, partial curve, poor fit]
Cc1ccc(S(=O)(=O)c2c(C)nn(C(C)(C)C)c2OC(=O)c2ccco2)cc1		10 µM [rising, partial curve]
CCCN1CCN(c2ncnc3sc(C(=O)Nc4c(C)cc(C)cc4C)c(C)c23)CC1	1.78 µM [falling, partial curve, poor fit]	0.0447 µM [falling, full curve, poor fit]

Fetched one by one from the list above (two):
Compound	AC50 [1]	AC50 [2]
CCN=c1sc(C(=O)NCCc2ccccc2)cc(=O)n1CC		14.1 µM [rising, single point]
CCCN1CCN(c2ncnc3sc(C(=O)Nc4c(C)cc(C)cc4C)c(C)c23)CC1	1.78 µM [falling, partial curve, poor fit]	0.0447 µM [falling, full curve, poor fit]
